Data reported in patent US20260139057A1 (University of California, published 2026).
Results are given in words; binding and its absence hold for the method and conditions named. Some entries that bind do so weakly or less than the wild type.

Chains of the proteins cited; added tags and fusions are not shown. Lines headed by an entry give the natural chain unless they say otherwise; changes in a name come on top.
UniProt P43406: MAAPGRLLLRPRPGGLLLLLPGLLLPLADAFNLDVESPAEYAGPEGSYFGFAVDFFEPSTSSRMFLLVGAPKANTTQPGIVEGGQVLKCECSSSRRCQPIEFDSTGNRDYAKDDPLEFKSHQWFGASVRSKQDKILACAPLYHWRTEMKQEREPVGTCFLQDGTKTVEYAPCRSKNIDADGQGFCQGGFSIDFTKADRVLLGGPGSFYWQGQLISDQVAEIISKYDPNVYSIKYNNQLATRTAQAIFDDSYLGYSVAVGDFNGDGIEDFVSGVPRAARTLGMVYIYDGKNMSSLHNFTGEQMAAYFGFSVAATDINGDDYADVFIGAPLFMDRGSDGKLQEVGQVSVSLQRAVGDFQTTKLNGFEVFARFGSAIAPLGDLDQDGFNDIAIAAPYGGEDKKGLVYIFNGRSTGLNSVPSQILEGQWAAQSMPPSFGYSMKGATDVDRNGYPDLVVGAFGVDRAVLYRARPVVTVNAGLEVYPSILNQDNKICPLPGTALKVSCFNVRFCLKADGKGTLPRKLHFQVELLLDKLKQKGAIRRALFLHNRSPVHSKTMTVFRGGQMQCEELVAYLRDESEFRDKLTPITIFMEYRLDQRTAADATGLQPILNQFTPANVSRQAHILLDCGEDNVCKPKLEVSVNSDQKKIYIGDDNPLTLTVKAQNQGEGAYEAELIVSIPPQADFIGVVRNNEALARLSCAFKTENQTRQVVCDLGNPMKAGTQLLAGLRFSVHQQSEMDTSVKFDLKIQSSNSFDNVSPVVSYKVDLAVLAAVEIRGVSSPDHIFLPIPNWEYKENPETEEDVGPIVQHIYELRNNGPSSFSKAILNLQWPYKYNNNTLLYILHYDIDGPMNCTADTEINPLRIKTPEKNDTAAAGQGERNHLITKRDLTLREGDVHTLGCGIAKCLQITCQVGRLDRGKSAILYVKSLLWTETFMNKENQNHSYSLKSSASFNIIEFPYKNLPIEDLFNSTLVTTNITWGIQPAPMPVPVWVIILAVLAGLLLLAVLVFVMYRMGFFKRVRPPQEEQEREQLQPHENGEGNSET
UniProt Q0VBD0: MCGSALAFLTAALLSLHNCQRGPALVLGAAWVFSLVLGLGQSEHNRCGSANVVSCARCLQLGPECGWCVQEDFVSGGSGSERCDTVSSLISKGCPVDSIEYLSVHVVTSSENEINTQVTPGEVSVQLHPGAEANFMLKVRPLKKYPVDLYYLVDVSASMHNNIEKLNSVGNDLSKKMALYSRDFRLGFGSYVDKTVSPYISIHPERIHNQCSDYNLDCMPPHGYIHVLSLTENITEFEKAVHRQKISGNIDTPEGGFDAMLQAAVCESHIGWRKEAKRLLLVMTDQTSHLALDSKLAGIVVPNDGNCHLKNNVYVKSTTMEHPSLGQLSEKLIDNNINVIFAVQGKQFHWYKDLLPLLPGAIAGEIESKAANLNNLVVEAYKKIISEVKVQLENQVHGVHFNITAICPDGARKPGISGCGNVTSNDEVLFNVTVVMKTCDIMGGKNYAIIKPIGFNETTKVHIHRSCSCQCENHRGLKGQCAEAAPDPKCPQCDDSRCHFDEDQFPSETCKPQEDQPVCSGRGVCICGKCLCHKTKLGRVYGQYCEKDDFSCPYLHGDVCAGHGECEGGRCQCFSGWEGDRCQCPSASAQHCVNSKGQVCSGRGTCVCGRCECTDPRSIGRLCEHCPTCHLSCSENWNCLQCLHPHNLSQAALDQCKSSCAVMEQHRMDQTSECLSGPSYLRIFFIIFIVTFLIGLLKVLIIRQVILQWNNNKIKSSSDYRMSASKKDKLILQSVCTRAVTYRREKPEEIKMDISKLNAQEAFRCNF

Legend:
[1] = biological target: T1, mouse αvβ8 on β8 LLC cells (Lewis lung carcinoma cells transfected with mouse itgb8) (mouse) (UniProt P43406+Q0VBD0); assay: flow cytometry on β8 LLC cells
[2] = biological target: T1, mouse αvβ8 on β8 LLC cells (Lewis lung carcinoma cells transfected with mouse itgb8) (mouse); assay: flow cytometry on β8 LLC and mock LLC cells
[3] = biological target: mouse αvβ8 on MC38 cells (mouse) (UniProt P43406+Q0VBD0); assay: flow cytometry on MC38 cells, HuF12 followed by anti-mouse PE

| binding [1] | binding [2] | binding [3] | Binder |
| --- | --- | --- | --- |
| binds | binds | – | H4C8 RGD3, human IgG4 (antibody, V domains shown, also called H4C8 RGD3 IgG4) VH: QVQLVQSGAEVKKPGASVKVSCKVSGYTLTRQSMHWVRQAPGKGLEWMGRINTETGEPTYAQKFQGRVTMTQDTSTDTAYMELSSLRSEDTAVYFCAIFYYGRDTWGQGTTVTVSS VL: EIVMTQSPATLSVSPGERVTLSCKSSQSLLGRGDLGRLKKNALAWYQQKPGQAPRLLIYWASTRETGVPARFSGSGSGTEFTLTISSLQSEDFAVYYCKQSYNLLSFGQGTKVEIKR |
| binds | binds | – | H4C8 RGD1, human IgG4 (antibody, V domains shown, also called H4C8 RGD1 IgG4) VH: QVQLVQSGAEVKKPGASVKVSCKVSGYTLTRQSMHWVRQAPGKGLEWMGRINTETGEPTYAQKFQGRVTMTQDTSTDTAYMELSSLRSEDTAVYFCAIFYYGRDTWGQGTTVTVSS VL: EIVMTQSPATLSVSPGERVTLSCKSSQSLLRRGDLATIHGNALAWYQQKPGQAPRLLIYWASTRETGVPARFSGSGSGTEFTLTISSLQSEDFAVYYCKQSYNLLSFGQGTKVEIKR |
| – | binds | binds | HuC6D4F12 (format not stated) (antibody, V domains shown, also called HuF12; huF12) VH: QIQLVQSGAEVKKPGASVKISCKASGYTFTKYSMHWVRQAPGQGLEWVARINTETGEPTFADDFRGRFTVTLDTSTSTAYLEIRSLRSDDTAVYFCAIFYYGRDTWGQGTTLTVSS VL: EIVMTQSPATLSVSPGERVTMSCKSSQSLLHSRSRKNYLAWYQQKPGQAPRLLIYWASTRESGVPARFSGSGSGTEFTLTISSVQSEDFAVYYCKQSYNLLSFGQGTVLEIKR |
| – | binds | – | HuC6D4 RGD3, mouse IgG2a (antibody, V domains shown, Mouse IgG2a) VH: QIQLVQSGAEVKKPGASVKISCKASGYTFTDYSMHWVRQAPGQGLEWVARINTETGEPTFADDFRGRFTVTLDTSTSTAYLEIRSLRSDDTAVYFCAIFYYGRDTWGQGTTLTVSS VL: EIVMTQSPATLSVSPGERVTMSCKSSQSLLGRGDLGRLKKNALAWYQQKPGQAPRLLIYWASTRESGVPARFSGSGSGTEFTLTISSVQSEDFAVYYCKQSYNLLSFGQGTVLEIKR |
| – | binds | – | F12 RGD1, human IgG4 (antibody, V domains shown) VH: QIQLVQSGAEVKKPGASVKISCKASGYTFTKYSMHWVRQAPGQGLEWVARINTETGEPTFADDFRGRFTVTLDTSTSTAYLEIRSLRSDDTAVYFCAIFYYGRDTWGQGTTLTVSS VL: DIVMTQSPSSLAVSAGEKVTMSCKSSQSLLRRGDLATIHGNALAWYQQKPGQSPRLLIYWASTRESGVPDRFTGSGSGTDFTLTISSVQAEDLAVYYCKQSYNLLSFGAGTKLELKA |
